Data: article PMC10476967
These are yes or no findings as the source states them, for the method shown. Binding seen in cells or lysates may run through a third protein. Some results given as binding are weak or reduced against the parent protein; the word gives no strength.

Protein sequences, listed by entry. Tags and fused reporters are not part of them.
UniProt P19091: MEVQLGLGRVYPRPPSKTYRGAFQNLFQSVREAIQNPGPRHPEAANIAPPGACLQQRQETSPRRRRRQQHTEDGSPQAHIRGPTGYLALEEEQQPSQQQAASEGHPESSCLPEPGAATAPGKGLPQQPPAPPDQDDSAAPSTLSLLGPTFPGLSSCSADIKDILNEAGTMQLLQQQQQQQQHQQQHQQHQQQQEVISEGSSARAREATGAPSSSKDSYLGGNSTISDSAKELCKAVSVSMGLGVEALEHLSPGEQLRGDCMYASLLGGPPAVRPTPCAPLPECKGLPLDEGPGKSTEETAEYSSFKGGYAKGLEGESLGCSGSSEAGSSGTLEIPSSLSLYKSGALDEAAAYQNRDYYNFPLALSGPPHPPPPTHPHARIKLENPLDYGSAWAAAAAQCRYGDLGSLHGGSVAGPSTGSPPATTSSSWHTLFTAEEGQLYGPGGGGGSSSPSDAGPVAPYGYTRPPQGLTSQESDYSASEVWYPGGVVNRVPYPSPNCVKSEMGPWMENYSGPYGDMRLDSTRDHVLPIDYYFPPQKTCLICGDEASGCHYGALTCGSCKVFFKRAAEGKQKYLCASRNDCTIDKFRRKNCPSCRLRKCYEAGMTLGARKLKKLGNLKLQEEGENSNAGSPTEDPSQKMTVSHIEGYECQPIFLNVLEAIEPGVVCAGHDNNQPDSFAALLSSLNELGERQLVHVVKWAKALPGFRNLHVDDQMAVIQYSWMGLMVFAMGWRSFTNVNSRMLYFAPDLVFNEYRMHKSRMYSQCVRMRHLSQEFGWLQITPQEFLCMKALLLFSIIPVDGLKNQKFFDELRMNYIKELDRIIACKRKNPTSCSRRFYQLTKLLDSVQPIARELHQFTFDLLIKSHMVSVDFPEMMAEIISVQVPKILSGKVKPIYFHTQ
UniProt Q9Z2E1: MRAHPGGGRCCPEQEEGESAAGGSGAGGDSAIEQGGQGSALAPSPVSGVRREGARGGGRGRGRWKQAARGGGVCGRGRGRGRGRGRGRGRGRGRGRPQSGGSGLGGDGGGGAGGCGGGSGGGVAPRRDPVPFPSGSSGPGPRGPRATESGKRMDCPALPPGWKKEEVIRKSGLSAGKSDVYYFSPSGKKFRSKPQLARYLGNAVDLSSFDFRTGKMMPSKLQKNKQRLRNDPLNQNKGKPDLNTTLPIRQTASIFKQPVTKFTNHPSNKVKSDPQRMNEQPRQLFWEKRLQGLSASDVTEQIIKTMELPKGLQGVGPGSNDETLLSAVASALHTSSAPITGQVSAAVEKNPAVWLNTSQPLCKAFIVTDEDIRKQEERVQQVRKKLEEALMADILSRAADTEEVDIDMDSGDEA
UniProt Q62219: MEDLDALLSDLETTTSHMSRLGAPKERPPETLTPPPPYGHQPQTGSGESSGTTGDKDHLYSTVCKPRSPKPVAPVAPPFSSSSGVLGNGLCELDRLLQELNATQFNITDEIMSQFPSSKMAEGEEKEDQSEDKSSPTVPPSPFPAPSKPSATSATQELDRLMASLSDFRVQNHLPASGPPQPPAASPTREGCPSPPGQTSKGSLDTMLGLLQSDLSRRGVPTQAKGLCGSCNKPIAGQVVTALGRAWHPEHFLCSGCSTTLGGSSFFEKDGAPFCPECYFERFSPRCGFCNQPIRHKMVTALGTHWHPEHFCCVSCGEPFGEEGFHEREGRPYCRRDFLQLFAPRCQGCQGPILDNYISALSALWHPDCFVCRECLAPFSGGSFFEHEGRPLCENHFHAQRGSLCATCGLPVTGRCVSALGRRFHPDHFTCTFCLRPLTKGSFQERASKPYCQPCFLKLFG
UniProt P34152: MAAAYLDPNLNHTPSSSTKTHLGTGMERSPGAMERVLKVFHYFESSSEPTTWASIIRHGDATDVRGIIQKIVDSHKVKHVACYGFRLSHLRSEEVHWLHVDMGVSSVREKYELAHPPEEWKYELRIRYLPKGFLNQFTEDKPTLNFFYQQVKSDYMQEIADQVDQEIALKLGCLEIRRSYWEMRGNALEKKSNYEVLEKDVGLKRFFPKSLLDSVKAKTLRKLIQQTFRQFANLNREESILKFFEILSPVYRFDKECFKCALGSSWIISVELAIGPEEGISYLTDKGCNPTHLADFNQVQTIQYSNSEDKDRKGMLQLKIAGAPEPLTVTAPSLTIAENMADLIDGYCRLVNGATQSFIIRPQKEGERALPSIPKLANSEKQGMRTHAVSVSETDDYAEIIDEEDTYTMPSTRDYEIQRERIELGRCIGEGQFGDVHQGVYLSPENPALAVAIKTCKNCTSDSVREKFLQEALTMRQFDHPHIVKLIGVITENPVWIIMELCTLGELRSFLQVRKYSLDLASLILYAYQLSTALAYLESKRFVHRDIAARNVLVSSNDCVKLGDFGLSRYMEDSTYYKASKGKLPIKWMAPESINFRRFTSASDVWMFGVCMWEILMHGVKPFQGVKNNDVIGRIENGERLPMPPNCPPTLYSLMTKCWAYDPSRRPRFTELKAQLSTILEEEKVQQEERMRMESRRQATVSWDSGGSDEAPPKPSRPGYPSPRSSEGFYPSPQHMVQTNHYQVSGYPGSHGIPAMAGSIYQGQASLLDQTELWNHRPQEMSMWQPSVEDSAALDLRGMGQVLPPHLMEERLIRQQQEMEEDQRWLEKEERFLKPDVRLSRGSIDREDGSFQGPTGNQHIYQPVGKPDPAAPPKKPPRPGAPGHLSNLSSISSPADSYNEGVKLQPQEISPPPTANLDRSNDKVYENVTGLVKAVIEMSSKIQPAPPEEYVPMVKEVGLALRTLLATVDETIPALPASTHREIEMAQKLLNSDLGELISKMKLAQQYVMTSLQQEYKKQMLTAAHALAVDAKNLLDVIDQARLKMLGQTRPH

Legend:
[1] = molecular target: androgen receptor (mouse (endogenous in C2C12)) (UniProt P19091); assay: proximity ligation; Duolink in situ Red Starter Kit Mouse/Rabbit; endogenous proteins in differentiating C2C12 cells, detected with antibody pairs
[2] = molecular target: MBD2 (mouse (endogenous in C2C12)) (UniProt Q9Z2E1); assay: as above

In the case of Hic-5 (from UniProt Q62219 1-461), the binding [1] is reported as “binds”.

For FAK (from UniProt P34152 1-1052), the binding [2] was “binds”.
